The supplement of paper PMC10849652
The other results are listed elsewhere or left out.

Sequences of proteins named here, by UniProt entry; tags and fusion partners are left off. A change or cut given only in a name is not applied to a line headed by its entry.
UniProt P54259: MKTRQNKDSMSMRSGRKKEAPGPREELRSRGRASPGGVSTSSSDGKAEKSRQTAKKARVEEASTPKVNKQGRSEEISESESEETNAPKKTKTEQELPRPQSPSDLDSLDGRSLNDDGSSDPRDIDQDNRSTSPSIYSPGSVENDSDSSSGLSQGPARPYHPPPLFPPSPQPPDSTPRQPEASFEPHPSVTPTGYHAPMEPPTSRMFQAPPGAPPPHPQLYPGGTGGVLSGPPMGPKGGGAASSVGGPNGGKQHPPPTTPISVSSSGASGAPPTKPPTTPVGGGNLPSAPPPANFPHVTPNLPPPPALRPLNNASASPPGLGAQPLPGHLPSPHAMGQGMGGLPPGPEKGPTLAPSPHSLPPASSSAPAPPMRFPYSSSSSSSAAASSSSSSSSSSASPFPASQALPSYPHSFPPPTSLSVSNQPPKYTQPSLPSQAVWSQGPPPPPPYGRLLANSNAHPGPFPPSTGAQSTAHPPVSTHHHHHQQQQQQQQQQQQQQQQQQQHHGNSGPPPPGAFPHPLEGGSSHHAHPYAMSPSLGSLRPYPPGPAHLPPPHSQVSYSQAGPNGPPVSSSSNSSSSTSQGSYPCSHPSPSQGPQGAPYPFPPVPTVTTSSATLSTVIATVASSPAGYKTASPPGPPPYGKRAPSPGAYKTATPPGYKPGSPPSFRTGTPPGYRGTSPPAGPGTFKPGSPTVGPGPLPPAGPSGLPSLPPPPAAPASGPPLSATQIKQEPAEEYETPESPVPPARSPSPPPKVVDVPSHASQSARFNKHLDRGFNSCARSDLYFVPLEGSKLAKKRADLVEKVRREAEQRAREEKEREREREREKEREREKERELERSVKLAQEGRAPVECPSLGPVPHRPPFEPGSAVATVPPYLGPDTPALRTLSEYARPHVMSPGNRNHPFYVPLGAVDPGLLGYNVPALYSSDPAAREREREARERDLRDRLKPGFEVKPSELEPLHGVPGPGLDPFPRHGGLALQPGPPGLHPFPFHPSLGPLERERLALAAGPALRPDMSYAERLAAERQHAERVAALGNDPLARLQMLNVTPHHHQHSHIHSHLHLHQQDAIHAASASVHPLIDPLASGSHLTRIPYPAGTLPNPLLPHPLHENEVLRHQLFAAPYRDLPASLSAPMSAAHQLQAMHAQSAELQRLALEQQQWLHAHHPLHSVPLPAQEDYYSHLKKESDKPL
UniProt P17544: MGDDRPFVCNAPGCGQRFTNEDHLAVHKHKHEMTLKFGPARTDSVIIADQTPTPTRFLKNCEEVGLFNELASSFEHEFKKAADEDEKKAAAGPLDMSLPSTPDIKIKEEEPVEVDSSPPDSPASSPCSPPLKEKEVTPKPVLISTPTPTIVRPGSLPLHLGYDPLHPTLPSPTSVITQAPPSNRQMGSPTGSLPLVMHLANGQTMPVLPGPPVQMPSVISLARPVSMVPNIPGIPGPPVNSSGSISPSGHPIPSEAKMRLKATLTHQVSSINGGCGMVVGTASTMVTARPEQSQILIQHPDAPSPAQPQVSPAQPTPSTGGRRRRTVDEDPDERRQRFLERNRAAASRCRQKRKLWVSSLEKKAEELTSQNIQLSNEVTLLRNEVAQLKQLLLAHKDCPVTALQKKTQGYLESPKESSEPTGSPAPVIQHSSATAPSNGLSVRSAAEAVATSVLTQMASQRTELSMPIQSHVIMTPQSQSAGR
UniProt O94817, whole entry, looked up: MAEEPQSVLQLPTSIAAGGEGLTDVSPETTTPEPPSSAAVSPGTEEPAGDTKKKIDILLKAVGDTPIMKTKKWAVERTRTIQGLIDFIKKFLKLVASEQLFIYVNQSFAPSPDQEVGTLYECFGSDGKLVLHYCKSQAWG
UniProt P21283, whole entry, looked up: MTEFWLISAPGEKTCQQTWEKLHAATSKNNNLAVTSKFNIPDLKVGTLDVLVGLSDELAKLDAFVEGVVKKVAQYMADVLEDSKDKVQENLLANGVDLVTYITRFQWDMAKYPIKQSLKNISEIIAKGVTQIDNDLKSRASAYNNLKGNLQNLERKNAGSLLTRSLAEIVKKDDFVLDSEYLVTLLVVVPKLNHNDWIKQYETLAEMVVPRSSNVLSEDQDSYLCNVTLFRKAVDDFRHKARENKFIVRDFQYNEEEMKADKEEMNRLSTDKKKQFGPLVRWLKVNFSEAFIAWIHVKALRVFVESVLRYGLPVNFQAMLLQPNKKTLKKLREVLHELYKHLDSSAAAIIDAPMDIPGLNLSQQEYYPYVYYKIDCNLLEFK
UniProt Q8NBU5: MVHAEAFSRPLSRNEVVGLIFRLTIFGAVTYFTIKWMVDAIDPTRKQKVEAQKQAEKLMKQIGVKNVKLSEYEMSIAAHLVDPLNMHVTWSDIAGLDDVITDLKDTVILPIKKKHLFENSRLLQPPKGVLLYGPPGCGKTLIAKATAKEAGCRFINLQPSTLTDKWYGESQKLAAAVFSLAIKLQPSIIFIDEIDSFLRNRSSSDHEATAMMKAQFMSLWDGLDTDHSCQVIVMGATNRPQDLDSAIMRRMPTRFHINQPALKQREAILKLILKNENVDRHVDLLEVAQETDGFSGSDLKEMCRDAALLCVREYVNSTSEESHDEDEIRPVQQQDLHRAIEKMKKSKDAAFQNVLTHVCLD
UniProt Q04656: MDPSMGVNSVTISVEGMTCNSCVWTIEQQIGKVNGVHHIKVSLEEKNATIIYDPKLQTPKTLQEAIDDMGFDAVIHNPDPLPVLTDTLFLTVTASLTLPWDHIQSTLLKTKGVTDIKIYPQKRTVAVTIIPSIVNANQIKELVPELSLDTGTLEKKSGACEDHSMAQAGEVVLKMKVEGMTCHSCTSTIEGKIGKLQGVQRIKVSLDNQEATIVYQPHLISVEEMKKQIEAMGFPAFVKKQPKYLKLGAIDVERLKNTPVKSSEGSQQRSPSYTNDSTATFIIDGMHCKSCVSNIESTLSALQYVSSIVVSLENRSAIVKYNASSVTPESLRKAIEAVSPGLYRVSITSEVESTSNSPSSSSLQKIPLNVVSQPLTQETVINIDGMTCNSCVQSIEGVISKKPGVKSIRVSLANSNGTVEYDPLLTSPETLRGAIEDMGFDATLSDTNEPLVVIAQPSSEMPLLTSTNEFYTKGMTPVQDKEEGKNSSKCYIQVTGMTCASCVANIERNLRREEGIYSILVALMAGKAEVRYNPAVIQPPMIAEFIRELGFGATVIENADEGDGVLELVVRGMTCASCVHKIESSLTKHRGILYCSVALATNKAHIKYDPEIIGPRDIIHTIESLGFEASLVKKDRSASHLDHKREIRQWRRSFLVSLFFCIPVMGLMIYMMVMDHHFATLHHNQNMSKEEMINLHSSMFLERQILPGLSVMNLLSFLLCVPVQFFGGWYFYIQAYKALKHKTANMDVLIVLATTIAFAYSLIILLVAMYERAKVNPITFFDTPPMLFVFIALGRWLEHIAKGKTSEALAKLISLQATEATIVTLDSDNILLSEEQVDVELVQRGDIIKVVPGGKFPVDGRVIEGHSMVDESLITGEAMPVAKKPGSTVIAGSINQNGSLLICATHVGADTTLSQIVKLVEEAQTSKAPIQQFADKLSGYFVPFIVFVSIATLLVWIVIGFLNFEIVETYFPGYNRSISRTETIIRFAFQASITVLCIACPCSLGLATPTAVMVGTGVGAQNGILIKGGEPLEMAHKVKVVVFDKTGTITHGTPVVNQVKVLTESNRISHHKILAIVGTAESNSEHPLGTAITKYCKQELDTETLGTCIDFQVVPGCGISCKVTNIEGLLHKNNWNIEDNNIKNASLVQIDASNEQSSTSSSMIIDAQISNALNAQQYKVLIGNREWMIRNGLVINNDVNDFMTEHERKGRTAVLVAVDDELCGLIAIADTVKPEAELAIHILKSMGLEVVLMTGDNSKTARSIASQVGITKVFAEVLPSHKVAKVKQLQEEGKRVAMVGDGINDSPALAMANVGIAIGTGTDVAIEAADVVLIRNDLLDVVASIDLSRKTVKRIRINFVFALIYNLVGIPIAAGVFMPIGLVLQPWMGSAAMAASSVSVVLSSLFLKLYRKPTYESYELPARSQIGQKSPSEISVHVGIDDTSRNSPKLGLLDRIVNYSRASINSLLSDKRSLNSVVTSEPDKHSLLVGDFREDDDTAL
UniProt Q93084: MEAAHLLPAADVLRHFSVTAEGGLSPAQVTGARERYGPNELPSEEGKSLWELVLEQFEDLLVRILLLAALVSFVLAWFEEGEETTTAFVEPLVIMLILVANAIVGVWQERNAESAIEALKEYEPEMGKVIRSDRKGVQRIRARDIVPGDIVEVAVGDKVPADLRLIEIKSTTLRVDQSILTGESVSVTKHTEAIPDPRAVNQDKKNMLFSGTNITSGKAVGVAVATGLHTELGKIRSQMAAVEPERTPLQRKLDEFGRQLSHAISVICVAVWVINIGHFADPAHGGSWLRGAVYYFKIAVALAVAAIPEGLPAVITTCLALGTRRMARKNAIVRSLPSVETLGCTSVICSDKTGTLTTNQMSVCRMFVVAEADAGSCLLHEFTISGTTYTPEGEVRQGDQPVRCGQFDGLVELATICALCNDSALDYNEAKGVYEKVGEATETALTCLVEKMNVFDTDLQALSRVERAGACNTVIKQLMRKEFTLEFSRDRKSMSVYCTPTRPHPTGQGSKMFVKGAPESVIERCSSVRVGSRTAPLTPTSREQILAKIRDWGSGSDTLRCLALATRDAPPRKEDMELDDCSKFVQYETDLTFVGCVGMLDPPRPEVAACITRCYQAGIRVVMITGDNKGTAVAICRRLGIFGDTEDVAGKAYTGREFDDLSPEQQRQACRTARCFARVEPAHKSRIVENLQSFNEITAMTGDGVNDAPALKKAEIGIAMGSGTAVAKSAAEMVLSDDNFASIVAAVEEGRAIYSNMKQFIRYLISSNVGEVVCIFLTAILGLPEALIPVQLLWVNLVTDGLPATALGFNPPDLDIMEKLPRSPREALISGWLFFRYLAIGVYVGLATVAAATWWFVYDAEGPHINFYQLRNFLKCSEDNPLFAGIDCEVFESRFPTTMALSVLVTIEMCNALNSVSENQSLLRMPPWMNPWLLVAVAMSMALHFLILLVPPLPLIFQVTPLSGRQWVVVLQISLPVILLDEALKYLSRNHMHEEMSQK
UniProt Q6DD88: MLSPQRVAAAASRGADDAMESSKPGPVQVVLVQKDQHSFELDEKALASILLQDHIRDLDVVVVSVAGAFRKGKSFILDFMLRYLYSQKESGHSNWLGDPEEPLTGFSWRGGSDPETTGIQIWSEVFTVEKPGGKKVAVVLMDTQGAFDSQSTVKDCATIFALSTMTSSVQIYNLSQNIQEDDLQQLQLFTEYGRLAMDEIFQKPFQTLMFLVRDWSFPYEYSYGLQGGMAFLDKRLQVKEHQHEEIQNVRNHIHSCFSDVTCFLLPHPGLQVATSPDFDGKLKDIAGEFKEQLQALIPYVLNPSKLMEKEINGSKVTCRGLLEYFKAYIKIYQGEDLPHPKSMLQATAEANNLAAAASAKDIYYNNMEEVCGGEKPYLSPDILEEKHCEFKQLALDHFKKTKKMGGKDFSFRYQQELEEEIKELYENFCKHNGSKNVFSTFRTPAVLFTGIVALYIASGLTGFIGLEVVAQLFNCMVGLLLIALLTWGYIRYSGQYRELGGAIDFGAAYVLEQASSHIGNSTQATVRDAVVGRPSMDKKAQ
UniProt Q9H6S1, whole entry, looked up: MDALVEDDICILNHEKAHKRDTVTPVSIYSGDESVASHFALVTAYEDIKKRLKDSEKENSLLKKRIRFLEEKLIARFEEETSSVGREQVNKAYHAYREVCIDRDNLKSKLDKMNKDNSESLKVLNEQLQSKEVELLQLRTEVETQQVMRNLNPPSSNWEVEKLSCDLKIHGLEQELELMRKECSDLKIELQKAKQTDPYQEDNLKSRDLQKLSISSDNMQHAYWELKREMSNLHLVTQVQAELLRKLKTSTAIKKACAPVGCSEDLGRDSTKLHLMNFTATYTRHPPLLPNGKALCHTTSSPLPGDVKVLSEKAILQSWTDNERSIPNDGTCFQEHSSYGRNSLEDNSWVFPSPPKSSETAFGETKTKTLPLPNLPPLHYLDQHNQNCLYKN
UniProt P08243: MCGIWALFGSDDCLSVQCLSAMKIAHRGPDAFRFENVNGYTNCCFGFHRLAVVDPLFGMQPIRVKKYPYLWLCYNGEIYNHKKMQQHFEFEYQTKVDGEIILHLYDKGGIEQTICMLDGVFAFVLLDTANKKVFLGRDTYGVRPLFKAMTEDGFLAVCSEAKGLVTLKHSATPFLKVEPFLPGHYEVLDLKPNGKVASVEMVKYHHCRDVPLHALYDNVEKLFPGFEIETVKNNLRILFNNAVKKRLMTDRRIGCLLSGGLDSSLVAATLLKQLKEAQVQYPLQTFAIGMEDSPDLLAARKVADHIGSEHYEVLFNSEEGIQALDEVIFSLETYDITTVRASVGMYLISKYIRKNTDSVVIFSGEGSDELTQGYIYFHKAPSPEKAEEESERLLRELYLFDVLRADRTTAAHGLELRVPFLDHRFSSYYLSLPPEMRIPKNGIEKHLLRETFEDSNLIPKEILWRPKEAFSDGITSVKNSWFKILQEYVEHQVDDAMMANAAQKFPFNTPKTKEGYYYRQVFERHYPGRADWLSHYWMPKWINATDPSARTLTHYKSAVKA

Columns and labels:
Experiment in all cases: log2 fold change, soluble protein after heating vs DMSO (PISA); higher = thermal stabilisation; K562 lysate, 10 uM; active = over 0.2 and 3.5 SD of the protein, either way, in both replicates (recomputed)
erlotinib = compound: C#Cc1cccc(Nc2ncnc3cc(OCCOC)c(OCCOC)cc23)c1 [erlotinib]
Method in brief: (§1)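 Values give the log-two fold change in thermal stability against solvent controls, from duplicates. Crude K562 extract at 1 mg/mL protein, made by dounce homogenisation in PBS pH 7.4 with 1 mM MgCl2, was treated with 10 μM compound for 30 min. After 3 min heating across 48°C-58°C, aliquots were pooled, adjusted to 0.5% NP-40 at 4°C and centrifuged at 21,000xg for 90 min. The supernatant was measured by TMTpro 16plex LC-MS/MS with channel sums equalised.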

[1] = compound: C/C(=N\NC(=O)C1=CC(=CC=C1)S(=O)(=O)N2CCOCC2)/C3=C(C=CC(=C3)Cl)O
Method in brief: as §1

[2] = compound: C1=CC(=CC=C1C2=NC3=C(N2)C=C(C=C3)C(=O)N)OC4=CC=C(C=C4)Cl
Method in brief: as §1

[3] = compound: C1=CC2=C(C=CC(=C2)/C=C\3/C(=O)NC(=NCC4=CC=CS4)S3)N=C1
Method in brief: as §1

[4] = compound: C1=CC2=NC=CN=C2C=C1/C=C/3\C(=O)NC(=O)S3
Method in brief: as §1

[5] = compound: C1=CC=C(C=C1)C2=NC(=C(N2)C3=CC=NC=C3)C4=CC(=C(C=C4)Cl)O
Method in brief: as §1

[6] = compound: C1=CC=C2C(=C1)C3=NNC4=CC=CC(=C43)C2=O
Method in brief: as §1

[7] = compound: C1CCN(C1)C(=O)NC2=CC=CC(=C2)NC3=NC=C(C(=N3)NCCC4=CN=CN4)Br
Method in brief: as §1

[8] = compound: C1CN(CCC1(CC2=CC=C(C=C2)Cl)N)C3=NC=NC4=C3C=CN4
Method in brief: as §1

IRAK-1-4 Inhibitor I = compound: C1COCCN1CCN2C3=CC=CC=C3N=C2NC(=O)C4=CC(=CC=C4)[N+](=O)[O-] [IRAK-1-4 Inhibitor I]
Method in brief: as §1

ibrutinib = compound: C=CC(=O)N1CCC[C@@H](n2nc(-c3ccc(Oc4ccccc4)cc3)c3c(N)ncnc32)C1 [ibrutinib]
Method in brief: as §1

[9] = compound: CC(=O)c1cnc2ccc(-c3cc(Cl)c(O)c(Cl)c3)nc2c1N[C@H]1CC[C@H](CN(C)C)CC1
Method in brief: as §1

ralimetinib = compound: CC(C)(C)Cn1c(N)nc2ccc(-c3[nH]c(C(C)(C)C)nc3-c3ccc(F)cc3)nc21 [ralimetinib]
Method in brief: as §1

[10] = compound: CC(C)(O)CC(=O)NCCn1ccc2ncnc(Nc3ccc(Oc4cccc(C(F)(F)F)c4)c(Cl)c3)c21
Method in brief: as §1

[11] = compound: CC(C)C1=C2N=C(C=C(N2N=C1)NCC3=CC=CC=C3)NCCCCCCN
Method in brief: as §1

[12] = compound: CC1=C(C(CC(=O)N1)C2=CC=C(C=C2)C(F)(F)F)C(=O)NC3=C(C=C4C(=C3)C=NN4)F
Method in brief: as §1

[13] = compound: CC1=C(C2=C(C=C1)C(=O)C3=CC=CC=C3N2CCCN)C
Method in brief: as §1

[14] = compound: CC1=C(C=C(C=C1)NC(=O)C2=CC(=CC=C2)C(C)(C)C#N)NC3=CC4=C(C=C3)N=CN(C4=O)C
Method in brief: as §1

[15] = compound: CC1=C(C=C(C=C1)NC(=O)C2=CC(=CC=C2)N(C)C)NC(=O)C3=CC=C(C=C3)O
Method in brief: as §1

[16] = compound: CC1=CC=C(C=C1)SC2=C3C=C(SC3=CN=C2)C(=O)N
Method in brief: as §1

Measured: log2 fold change

AURKAIP1 (UniProt Q9NWT8)
active: [5] 0.432 | [15] -0.417
inactive: erlotinib -0.062 | [1] -0.093 | [2] 0.046 | [3] -0.031 | [4] -0.019 | [6] 0.025 | [7] -0.032 | [8] 0.064 | IRAK-1-4 Inhibitor I 0.095 | ibrutinib -0.055 | [9] -0.095 | ralimetinib -0.363 | [10] -0.222 | [11] 0.021 | [12] 0.029 | [13] -0.012 | [14] 0.135 | [16] -0.013

ATN1 (UniProt P54259)
inactive: erlotinib -0.059 | [1] 0.036 | [2] 0.054 | [3] -0.003 | [4] 0.013 | [5] 0.007 | [6] -0.007 | [7] 0.009 | [8] 0.056 | IRAK-1-4 Inhibitor I -0.01 | ibrutinib 0.037 | [9] -0.032 | ralimetinib -0.008 | [10] -0.078 | [11] 0.019 | [12] -0.017 | [13] -0.022 | [14] -0.15 | [15] -0.008 | [16] -0.038

ASPSCR1 (UniProt Q9BZE9)
inactive: erlotinib 0.007 | [1] 0.069 | [2] -0.032 | [3] -0.031 | [4] -0.04 | [5] 0.002 | [6] -0.024 | [7] -0.037 | [8] 0 | IRAK-1-4 Inhibitor I -0.011 | ibrutinib 0.002 | [9] -0.02 | ralimetinib 0 | [10] -0.005 | [11] -0.009 | [12] -0.042 | [13] -0.026 | [14] -0.022 | [15] 0.004 | [16] 0.026

ATF7 isoform 6 (UniProt P17544)
inactive: erlotinib 0.003 | [1] -0.146 | [2] 0.035 | [3] -0.074 | [4] 0.066 | [5] -0.057 | [6] 0.115 | [7] -0.007 | [8] -0.086 | IRAK-1-4 Inhibitor I 0.045 | ibrutinib -0.065 | [9] -0.06 | ralimetinib -0.056 | [10] -0.023 | [11] -0.042 | [12] -0.058 | [13] -0.144 | [14] 0.06 | [15] 0 | [16] -0.015

ATG12 (UniProt O94817)
inactive: erlotinib 0.01 | [1] 0.086 | [2] -0.049 | [3] 0.019 | [4] 0.064 | [5] 0 | [6] 0.02 | [7] -0.004 | [8] -0.024 | IRAK-1-4 Inhibitor I 0.035 | ibrutinib 0.003 | [9] 0.041 | ralimetinib -0.026 | [10] -0.026 | [11] 0.008 | [12] -0.024 | [13] -0.093 | [14] 0.033 | [15] -0.035 | [16] 0.039

ATP11C (UniProt Q8NB49)
inactive: erlotinib 0.014 | [1] 0.037 | [2] 0.021 | [3] 0.01 | [4] -0.035 | [5] -0.008 | [6] -0.037 | [7] 0.027 | [8] -0.004 | IRAK-1-4 Inhibitor I -0.006 | ibrutinib 0.005 | [9] 0.007 | ralimetinib 0.007 | [10] -0.046 | [11] -0.006 | [12] 0.025 | [13] -0.041 | [14] 0.028 | [15] 0.013 | [16] -0.007

ATXN2 (UniProt Q99700)
inactive: erlotinib 0.007 | [1] -0.015 | [2] 0.063 | [3] -0.006 | [4] -0.041 | [5] -0.005 | [6] -0.022 | [7] 0.026 | [8] 0.014 | IRAK-1-4 Inhibitor I 0.016 | ibrutinib -0.007 | [9] -0.011 | ralimetinib -0.002 | [10] 0 | [11] 0.016 | [12] 0.013 | [13] -0.022 | [14] -0.02 | [15] 0.041 | [16] -0.021

ATP6V1C1 (UniProt P21283)
inactive: erlotinib 0.003 | [1] 0.001 | [2] -0.005 | [3] -0.006 | [4] -0.011 | [5] -0.014 | [6] 0.012 | [7] 0.001 | [8] -0.001 | IRAK-1-4 Inhibitor I -0.026 | ibrutinib 0.011 | [9] 0 | ralimetinib 0.007 | [10] -0.016 | [11] -0.022 | [12] -0.02 | [13] 0.006 | [14] 0.025 | [15] 0.014 | [16] 0.001

ATAD1 (UniProt Q8NBU5)
inactive: erlotinib 0.004 | [1] 0.046 | [2] -0.016 | [3] 0.027 | [4] -0.059 | [5] -0.041 | [6] 0.004 | [7] -0.029 | [8] 0.015 | IRAK-1-4 Inhibitor I 0.063 | ibrutinib 0 | [9] 0.008 | ralimetinib 0.245 | [10] -0.059 | [11] 0.016 | [12] -0.165 | [13] -0.059 | [14] -0.003 | [15] -0.01 | [16] 0.03

ATP9B (UniProt O43861)
inactive: erlotinib 0.008 | [1] -0.057 | [2] 0.034 | [3] 0.175 | [4] -0.07 | [5] 0.031 | [6] 0.081 | [7] 0.027 | [8] -0.103 | IRAK-1-4 Inhibitor I -0.037 | ibrutinib -0.156 | [9] 0.08 | ralimetinib -0.044 | [10] -0.053 | [11] -0.021 | [12] 0.225 | [13] 0.049 | [14] 0 | [15] 0.079 | [16] -0.054

ATIC (UniProt P31939)
inactive: erlotinib 0.015 | [1] 0.074 | [2] -0.002 | [3] -0.005 | [4] -0.001 | [5] 0.006 | [6] -0.019 | [7] -0.013 | [8] 0.002 | IRAK-1-4 Inhibitor I 0 | ibrutinib 0.021 | [9] -0.001 | ralimetinib -0.014 | [10] 0.009 | [11] 0.018 | [12] -0.018 | [13] -0.008 | [14] -0.02 | [15] -0.015 | [16] 0.027

ATP7A isoform 3 (UniProt Q04656)
inactive: erlotinib 0.007 | [1] -0.046 | [2] -0.015 | [3] 0.005 | [4] 0.003 | [5] 0.037 | [6] -0.009 | [7] -0.004 | [8] 0.006 | IRAK-1-4 Inhibitor I -0.022 | ibrutinib -0.003 | [9] 0.015 | ralimetinib -0.018 | [10] -0.034 | [11] -0.004 | [12] -0.01 | [13] -0.014 | [14] 0.016 | [15] 0.01 | [16] -0.011

ATP2A3 isoform 2 (UniProt Q93084)
inactive: erlotinib 0.008 | [1] 0.109 | [2] -0.048 | [3] 0.005 | [4] 0.002 | [5] -0.013 | [6] -0.018 | [7] -0.025 | [8] 0.074 | IRAK-1-4 Inhibitor I 0.043 | ibrutinib -0.047 | [9] -0.025 | ralimetinib 0.018 | [10] 0.028 | [11] -0.011 | [12] -0.023 | [13] -0.001 | [14] 0.029 | [15] 0.024 | [16] 0.027

ATL3 (UniProt Q6DD88)
inactive: erlotinib -0.017 | [1] 0.035 | [2] 0.082 | [3] 0.03 | [4] -0.001 | [5] -0.052 | [6] -0.008 | [7] 0.006 | [8] 0.072 | IRAK-1-4 Inhibitor I -0.004 | ibrutinib -0.042 | [9] -0.012 | ralimetinib 0.027 | [10] -0.003 | [11] -0.003 | [12] 0.013 | [13] 0.007 | [14] -0.017 | [15] 0.037 | [16] -0.021

AZI2 (UniProt Q9H6S1)
inactive: erlotinib -0.022 | [1] -0.152 | [2] 0.048 | [3] -0.082 | [4] -0.126 | [5] 0.03 | [6] 0.07 | [7] 0.029 | [8] -0.059 | IRAK-1-4 Inhibitor I 0.03 | ibrutinib -0.16 | [9] 0.026 | ralimetinib 0.025 | [10] -0.079 | [11] -0.261 | [12] 0.058 | [13] -0.025 | [14] 0.151 | [15] 0.03 | [16] 0.028

ASNS (UniProt P08243)
inactive: erlotinib 0.024 | [1] 0.067 | [2] -0.019 | [3] -0.007 | [4] 0.017 | [5] -0.023 | [6] -0.018 | [7] 0.016 | [8] 0.038 | IRAK-1-4 Inhibitor I 0.011 | ibrutinib 0.012 | [9] 0.015 | ralimetinib -0.014 | [10] 0.012 | [11] 0.052 | [12] -0.017 | [13] 0.04 | [14] 0.016 | [15] 0.014 | [16] 0.047
